Measured values from paper doi:10.1101/2022.05.27.493725.
These are yes or no findings as the source states them, for the method shown. In cells and extracts the contact can be indirect. Some binding calls cover weakened binding; strength is not graded here.

Sequences of proteins named here, by UniProt entry; tags and fusion partners are left off. Residues count along the entry.
UniProt Q5TKA1: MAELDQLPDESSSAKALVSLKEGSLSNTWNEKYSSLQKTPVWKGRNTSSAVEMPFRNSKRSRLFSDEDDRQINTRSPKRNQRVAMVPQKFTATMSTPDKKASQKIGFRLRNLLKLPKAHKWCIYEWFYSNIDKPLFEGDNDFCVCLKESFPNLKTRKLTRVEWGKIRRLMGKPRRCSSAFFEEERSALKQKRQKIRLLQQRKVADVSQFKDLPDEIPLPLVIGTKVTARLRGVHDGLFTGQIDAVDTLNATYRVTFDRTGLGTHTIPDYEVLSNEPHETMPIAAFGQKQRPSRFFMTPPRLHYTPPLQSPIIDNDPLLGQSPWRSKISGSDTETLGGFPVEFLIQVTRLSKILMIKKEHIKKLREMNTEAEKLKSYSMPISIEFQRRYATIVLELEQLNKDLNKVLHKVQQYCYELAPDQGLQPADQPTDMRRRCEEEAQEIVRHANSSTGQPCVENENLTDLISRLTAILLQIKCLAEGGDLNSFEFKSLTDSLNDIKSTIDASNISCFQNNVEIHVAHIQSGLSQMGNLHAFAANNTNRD
UniProt P10244: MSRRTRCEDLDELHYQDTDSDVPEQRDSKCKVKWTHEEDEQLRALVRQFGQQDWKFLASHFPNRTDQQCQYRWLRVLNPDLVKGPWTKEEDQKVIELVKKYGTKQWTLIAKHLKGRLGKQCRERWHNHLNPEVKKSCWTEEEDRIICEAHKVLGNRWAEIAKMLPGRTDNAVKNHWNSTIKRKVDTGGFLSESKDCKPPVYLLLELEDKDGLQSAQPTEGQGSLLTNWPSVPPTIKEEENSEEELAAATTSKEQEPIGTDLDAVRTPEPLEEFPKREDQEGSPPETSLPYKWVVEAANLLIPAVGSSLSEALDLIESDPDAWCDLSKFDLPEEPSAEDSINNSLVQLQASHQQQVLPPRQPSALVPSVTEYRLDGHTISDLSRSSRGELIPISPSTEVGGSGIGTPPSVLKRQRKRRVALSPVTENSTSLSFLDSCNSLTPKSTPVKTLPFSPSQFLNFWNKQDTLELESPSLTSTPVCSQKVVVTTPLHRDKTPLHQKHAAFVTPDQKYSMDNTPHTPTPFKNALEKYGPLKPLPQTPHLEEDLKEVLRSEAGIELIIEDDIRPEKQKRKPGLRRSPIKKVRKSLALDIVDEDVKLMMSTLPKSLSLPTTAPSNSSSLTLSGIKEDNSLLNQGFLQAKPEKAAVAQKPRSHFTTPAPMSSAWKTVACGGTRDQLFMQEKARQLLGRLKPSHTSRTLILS
UniProt Q15648: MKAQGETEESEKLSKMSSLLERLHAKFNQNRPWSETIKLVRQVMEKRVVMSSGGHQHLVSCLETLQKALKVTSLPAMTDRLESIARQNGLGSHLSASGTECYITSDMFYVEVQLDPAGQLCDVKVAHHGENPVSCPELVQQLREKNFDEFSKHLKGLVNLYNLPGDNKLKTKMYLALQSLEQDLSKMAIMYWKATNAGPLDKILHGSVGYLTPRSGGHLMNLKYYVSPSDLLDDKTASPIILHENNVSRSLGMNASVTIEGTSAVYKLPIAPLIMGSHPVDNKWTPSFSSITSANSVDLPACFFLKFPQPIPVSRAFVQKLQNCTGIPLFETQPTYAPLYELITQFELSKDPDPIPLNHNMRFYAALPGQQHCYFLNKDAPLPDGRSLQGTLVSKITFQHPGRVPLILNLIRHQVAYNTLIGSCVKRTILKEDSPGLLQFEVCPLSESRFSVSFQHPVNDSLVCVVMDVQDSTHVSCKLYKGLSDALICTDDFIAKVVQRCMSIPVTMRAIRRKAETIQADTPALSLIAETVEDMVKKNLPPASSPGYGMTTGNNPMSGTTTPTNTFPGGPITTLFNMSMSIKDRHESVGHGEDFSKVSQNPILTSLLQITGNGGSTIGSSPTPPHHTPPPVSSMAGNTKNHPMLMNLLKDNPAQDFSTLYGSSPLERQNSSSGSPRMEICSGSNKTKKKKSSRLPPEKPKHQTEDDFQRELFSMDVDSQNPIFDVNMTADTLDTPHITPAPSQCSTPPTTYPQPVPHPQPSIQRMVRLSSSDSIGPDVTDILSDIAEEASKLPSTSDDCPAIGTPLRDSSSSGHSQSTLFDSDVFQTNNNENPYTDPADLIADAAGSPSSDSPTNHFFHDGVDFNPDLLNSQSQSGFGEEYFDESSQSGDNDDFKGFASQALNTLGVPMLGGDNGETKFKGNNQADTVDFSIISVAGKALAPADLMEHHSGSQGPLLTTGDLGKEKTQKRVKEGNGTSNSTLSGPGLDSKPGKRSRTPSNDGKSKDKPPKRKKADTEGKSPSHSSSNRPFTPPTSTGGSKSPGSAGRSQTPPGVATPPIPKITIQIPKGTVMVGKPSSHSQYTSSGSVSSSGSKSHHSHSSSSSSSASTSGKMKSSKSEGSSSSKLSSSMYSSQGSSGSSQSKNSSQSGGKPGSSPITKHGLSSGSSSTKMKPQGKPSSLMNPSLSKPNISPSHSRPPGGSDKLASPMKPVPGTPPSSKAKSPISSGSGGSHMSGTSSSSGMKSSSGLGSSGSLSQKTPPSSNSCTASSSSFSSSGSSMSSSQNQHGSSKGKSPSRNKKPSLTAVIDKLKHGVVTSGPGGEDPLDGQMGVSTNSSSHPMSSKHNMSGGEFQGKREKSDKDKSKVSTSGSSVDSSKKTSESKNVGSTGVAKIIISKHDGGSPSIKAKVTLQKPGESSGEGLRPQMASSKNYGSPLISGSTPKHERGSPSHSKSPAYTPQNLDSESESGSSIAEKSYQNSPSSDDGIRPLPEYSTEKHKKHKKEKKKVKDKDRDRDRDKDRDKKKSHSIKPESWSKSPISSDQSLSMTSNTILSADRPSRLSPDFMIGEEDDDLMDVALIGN
UniProt Q9Y4K0, residues 26-774: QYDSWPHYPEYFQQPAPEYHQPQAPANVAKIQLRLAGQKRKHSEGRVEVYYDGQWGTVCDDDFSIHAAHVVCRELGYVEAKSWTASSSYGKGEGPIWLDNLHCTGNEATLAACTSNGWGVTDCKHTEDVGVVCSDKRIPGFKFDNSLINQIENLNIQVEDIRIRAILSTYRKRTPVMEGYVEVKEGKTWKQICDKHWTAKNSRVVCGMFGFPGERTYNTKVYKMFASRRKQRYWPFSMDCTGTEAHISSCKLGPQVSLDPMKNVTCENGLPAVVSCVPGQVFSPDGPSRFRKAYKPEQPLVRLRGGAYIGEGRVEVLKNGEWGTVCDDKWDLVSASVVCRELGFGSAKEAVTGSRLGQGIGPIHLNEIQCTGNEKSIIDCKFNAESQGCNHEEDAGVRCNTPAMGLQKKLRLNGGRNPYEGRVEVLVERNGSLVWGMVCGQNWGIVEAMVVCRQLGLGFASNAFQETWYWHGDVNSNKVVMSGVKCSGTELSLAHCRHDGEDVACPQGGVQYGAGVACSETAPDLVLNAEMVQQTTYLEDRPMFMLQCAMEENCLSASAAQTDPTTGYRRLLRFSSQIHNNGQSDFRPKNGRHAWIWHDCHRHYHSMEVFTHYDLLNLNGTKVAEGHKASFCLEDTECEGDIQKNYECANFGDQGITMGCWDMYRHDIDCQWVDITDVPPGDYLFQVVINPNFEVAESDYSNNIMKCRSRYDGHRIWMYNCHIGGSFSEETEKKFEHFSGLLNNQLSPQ

Tests used:
Test in all cases: co-IP
[1] = target: Lin9 (MuvB subunit), endogenous (human (endogenous in MDA-MB-231)) (UniProt Q5TKA1)
[2] = target: B-Myb, endogenous (human (endogenous in MDA-MB-231)) (UniProt P10244)
[3] = target: MED1, endogenous (human (endogenous in MDA-MB-231)) (UniProt Q15648)
[4] = target: T1, FOXM1, endogenous (human (endogenous in MDA-MB-231)) (UniProt Q08050)
T1 sequence: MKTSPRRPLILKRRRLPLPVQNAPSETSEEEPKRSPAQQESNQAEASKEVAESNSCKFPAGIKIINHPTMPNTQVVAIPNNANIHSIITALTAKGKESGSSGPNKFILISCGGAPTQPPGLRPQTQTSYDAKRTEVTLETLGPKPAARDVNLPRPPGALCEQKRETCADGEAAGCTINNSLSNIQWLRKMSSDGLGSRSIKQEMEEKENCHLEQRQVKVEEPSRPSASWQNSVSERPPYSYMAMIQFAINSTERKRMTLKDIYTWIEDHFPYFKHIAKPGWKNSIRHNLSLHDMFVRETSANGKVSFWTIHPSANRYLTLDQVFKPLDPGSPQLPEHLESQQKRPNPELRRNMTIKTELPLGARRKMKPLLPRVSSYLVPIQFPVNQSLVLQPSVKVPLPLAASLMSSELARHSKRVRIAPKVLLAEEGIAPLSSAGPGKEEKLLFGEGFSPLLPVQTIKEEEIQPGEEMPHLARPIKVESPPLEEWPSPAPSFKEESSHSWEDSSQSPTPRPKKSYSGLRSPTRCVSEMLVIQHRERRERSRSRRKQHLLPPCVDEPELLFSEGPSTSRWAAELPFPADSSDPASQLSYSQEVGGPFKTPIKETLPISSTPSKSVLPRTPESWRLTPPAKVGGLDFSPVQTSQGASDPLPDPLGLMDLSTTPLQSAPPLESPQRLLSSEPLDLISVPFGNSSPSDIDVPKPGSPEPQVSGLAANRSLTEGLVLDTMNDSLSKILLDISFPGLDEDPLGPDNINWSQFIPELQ

Measured: binding

Lysyl Oxidase Like 2 (LOXL2), endogenous (from UniProt Q9Y4K0 26-774)
binds: all assays above

MED1, endogenous (from UniProt Q15648 1-1581)
binds: [1] | [2]
